For at least one entry, the source does not settle the construct or the ends of the probe. The comparison behind a weaker result is the experiment's own reference, which may not be listed here.
Biological target: nucleolin (NCL) (Homo sapiens) (UniProt P19338)
Assay: SPR
Conditions: negative control, small dose-response signal, fit failed, 70 mM KCl, SPR (Biacore X-100, CM5): 10 mM HEPES, pH 7.4, 25 C, analyte 5-500 uM, two-state reaction fit, commercial protein, single-stranded DNA

Chains of the proteins cited; added tags and fusions are not shown.
UniProt P19338, whole entry: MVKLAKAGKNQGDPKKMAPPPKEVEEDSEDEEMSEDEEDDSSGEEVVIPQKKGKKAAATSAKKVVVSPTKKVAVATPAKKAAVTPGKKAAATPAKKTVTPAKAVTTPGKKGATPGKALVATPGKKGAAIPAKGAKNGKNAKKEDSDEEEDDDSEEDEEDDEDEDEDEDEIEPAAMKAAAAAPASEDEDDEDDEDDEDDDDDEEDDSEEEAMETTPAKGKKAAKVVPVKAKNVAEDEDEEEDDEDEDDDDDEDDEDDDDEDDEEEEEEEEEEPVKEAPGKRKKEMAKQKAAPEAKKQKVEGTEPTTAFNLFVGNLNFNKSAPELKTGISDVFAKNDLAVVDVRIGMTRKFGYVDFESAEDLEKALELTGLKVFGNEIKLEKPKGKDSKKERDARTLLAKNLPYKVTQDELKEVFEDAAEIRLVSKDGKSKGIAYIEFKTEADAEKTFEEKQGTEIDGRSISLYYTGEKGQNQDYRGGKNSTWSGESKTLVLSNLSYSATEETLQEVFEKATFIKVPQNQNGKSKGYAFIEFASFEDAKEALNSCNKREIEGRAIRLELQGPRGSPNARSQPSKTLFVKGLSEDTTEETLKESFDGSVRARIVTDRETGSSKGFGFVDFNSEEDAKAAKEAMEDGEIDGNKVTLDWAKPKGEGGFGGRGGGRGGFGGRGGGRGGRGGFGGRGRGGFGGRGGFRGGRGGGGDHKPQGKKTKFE

## TTTTTTTTTTTTTTTTTTTTTTT [T23, d(T)23]
  binding result: binds more weakly

Reference: paper PMC9736779
